Common to all, as to assay: peptide or protein array; only the binder purified
For assay [1], the target named is T1, Actin-bundling protein with BAIAP2 homology (ABBA-1) (human) (UniProt Q765P7).
T1 sequence: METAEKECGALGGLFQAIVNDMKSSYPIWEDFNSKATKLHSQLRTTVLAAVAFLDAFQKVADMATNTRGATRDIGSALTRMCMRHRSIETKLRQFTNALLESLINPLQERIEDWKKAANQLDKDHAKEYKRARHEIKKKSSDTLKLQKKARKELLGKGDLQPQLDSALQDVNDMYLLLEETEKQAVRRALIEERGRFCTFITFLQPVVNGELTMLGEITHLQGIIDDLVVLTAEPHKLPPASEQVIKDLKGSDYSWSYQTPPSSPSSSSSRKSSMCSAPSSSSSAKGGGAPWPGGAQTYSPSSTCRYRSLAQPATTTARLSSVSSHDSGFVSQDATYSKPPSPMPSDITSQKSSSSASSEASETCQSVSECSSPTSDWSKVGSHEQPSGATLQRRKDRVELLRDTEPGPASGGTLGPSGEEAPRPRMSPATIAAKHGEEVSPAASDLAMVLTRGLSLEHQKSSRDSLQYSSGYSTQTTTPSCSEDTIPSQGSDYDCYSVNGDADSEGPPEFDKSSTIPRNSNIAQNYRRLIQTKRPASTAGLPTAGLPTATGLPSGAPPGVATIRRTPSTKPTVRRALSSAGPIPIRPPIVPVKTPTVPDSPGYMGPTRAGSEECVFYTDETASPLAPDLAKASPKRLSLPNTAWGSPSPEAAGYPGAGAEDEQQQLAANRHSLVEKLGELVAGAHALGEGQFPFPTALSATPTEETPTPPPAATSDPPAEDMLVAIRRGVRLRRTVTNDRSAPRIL

Chains of the proteins cited; added tags and fusions are not shown. Lines headed by an entry give the natural chain unless they say otherwise; changes in a name come on top. A line that says so, or that is headed by a name, gives the form on record, which may keep a tag or linker.
UniProt Q9NYF8: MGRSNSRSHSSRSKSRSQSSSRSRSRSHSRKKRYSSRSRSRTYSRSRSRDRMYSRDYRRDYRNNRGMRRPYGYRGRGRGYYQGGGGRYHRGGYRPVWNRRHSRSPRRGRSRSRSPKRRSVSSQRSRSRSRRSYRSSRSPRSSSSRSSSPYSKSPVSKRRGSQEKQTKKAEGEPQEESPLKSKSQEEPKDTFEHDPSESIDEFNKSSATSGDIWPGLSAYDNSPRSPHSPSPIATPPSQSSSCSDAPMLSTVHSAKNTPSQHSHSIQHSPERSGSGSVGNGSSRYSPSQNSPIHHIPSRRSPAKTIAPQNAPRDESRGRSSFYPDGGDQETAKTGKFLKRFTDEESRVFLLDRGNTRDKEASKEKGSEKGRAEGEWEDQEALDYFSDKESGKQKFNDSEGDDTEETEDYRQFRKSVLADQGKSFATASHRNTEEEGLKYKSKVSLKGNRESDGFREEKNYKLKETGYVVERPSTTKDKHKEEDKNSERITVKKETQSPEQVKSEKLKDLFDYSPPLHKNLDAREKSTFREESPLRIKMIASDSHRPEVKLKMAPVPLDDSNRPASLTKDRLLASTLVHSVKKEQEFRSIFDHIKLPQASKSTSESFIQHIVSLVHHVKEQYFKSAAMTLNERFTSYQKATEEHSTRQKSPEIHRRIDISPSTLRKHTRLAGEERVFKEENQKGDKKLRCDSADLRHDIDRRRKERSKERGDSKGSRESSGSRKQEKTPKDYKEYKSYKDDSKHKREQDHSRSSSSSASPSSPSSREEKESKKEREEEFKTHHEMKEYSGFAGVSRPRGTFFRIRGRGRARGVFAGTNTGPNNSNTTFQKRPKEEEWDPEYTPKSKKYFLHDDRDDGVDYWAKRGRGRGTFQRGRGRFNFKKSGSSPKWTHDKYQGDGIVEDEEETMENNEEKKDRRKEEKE
UniProt Q9UER7: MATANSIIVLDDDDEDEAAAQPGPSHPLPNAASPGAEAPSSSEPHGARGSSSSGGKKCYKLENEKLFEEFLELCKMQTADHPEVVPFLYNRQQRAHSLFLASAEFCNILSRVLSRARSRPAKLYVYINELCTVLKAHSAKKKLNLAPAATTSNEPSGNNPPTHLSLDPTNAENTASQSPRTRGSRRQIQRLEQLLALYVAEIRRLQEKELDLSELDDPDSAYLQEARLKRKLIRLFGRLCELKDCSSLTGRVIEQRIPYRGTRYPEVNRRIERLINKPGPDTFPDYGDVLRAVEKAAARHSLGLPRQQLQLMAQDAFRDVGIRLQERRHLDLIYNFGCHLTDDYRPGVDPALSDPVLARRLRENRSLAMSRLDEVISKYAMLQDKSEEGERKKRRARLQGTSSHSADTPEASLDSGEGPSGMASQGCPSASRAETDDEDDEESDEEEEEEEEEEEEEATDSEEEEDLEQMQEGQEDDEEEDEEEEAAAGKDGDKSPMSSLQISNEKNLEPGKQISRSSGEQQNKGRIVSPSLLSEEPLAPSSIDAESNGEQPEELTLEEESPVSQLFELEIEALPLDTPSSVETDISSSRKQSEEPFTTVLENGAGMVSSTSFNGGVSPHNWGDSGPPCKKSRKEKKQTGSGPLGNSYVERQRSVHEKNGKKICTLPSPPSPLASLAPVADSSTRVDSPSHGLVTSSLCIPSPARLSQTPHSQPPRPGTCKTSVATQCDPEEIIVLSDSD
UniProt Q92769: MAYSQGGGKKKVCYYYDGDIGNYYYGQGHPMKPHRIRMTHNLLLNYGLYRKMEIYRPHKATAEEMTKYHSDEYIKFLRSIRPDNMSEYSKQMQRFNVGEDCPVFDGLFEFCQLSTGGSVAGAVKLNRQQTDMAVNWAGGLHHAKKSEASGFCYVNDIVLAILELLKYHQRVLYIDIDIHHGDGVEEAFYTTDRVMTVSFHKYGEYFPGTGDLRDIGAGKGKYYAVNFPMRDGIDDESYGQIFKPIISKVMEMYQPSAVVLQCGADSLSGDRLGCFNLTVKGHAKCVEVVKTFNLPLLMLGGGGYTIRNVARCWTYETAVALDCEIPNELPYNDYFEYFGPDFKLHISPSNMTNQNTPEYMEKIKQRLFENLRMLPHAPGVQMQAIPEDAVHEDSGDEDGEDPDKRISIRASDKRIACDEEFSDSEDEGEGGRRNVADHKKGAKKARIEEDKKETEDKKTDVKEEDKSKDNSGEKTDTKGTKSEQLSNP
Kruppel-like factor 4 (gut) (KLF4) (O43474, form named): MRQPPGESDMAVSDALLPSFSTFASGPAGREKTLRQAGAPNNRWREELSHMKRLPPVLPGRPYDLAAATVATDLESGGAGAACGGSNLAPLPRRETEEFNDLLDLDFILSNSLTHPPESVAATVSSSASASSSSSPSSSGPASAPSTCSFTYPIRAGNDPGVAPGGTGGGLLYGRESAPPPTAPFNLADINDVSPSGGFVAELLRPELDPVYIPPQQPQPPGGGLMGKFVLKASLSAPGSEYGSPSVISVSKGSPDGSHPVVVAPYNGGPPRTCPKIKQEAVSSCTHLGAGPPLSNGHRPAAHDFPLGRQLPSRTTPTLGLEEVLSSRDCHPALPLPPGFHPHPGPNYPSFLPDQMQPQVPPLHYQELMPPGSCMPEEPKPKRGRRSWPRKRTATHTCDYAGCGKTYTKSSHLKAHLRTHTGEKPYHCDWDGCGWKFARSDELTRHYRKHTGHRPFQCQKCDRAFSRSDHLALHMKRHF
UniProt Q9Y618: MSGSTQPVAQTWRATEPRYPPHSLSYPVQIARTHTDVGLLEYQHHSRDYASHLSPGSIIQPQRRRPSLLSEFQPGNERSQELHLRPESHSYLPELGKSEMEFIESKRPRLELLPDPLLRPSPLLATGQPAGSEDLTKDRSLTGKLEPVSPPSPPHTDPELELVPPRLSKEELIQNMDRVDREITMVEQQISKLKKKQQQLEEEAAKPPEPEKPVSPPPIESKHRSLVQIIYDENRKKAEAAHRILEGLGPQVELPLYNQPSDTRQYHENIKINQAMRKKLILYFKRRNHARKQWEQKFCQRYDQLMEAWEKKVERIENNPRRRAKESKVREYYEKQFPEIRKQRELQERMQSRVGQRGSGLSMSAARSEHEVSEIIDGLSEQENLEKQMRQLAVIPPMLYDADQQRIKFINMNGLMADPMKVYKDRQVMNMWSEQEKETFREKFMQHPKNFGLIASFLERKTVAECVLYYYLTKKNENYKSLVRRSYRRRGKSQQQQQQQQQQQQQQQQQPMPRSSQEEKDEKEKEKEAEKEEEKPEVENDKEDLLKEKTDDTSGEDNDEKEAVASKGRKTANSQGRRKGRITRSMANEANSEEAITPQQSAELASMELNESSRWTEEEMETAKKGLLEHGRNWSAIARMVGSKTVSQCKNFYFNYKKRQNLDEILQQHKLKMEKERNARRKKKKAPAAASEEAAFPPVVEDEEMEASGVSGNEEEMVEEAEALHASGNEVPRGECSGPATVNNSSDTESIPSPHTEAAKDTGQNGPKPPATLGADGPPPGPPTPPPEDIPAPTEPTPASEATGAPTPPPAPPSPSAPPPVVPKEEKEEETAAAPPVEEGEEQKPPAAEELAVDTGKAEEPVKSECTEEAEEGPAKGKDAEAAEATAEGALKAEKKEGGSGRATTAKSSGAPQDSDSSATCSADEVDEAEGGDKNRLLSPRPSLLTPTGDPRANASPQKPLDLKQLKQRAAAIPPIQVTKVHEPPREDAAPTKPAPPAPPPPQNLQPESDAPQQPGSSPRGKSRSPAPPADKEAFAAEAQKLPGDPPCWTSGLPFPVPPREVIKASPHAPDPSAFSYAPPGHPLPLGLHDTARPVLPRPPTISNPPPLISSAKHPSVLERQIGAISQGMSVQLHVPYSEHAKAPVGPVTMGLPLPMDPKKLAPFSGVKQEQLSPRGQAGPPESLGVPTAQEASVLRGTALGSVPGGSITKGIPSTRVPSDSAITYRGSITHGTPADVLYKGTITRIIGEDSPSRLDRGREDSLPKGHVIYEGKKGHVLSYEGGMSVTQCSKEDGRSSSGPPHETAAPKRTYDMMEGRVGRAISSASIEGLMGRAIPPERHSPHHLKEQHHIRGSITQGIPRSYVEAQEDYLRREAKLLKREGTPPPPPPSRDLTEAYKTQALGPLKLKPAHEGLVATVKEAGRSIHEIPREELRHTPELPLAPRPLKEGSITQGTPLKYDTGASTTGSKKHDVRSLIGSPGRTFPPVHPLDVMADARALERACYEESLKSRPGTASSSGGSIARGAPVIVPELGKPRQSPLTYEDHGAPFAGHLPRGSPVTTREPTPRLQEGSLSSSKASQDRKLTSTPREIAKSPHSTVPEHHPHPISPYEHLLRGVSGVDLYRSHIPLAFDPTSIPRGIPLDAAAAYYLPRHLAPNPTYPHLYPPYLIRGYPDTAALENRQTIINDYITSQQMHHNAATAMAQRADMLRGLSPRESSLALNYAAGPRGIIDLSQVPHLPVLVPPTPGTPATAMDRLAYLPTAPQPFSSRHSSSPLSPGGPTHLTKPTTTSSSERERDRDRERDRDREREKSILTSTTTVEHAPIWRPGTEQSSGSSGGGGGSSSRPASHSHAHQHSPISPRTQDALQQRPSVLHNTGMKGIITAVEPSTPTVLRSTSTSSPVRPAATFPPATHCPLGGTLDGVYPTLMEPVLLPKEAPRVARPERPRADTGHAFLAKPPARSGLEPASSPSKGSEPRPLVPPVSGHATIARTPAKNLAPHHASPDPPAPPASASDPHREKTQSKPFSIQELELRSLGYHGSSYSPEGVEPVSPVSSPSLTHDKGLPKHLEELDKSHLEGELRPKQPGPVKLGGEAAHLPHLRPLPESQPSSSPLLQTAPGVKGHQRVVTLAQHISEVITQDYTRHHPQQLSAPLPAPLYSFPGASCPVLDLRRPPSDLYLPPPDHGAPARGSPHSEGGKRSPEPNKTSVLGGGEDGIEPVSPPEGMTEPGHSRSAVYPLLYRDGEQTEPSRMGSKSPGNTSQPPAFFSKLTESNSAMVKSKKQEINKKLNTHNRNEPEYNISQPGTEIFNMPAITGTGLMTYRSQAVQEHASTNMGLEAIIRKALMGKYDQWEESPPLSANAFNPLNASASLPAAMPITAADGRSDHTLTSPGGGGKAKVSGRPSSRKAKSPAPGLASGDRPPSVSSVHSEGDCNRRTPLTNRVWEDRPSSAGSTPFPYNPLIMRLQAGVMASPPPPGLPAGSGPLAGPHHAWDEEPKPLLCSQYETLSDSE
UniProt P18615: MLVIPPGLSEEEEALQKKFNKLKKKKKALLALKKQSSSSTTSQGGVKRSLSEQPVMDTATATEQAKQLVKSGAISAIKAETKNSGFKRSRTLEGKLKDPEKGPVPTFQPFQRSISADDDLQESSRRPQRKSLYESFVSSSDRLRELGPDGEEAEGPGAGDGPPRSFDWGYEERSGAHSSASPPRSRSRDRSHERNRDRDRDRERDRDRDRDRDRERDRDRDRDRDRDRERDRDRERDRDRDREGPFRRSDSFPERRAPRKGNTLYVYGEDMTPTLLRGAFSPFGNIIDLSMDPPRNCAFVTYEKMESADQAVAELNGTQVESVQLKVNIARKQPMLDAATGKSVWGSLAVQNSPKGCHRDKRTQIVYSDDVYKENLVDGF
UniProt P13202: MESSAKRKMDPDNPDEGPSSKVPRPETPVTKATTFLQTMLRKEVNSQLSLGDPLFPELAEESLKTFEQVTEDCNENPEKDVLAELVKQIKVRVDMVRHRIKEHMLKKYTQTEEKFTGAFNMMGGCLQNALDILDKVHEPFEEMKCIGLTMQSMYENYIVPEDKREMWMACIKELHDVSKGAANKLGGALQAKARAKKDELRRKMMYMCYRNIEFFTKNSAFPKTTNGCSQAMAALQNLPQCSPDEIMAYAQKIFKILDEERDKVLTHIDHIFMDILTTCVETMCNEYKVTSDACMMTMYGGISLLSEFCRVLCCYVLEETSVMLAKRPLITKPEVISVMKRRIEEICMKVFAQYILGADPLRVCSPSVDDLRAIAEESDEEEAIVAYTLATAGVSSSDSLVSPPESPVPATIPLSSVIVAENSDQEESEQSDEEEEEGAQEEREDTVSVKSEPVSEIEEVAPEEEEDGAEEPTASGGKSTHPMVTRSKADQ

For assay [2], the target named is BCL2-associated transcription factor 1 (human) (UniProt Q9NYF8).
Assay [3] concerns the target Death-associated protein 6 (DAXX) (human) (UniProt Q9UER7).
Assay [4] addresses HDAC2 (human) (UniProt Q92769).
Assay [5] addresses T2, Histone deacetylase 10 (HDAC10) (human) (UniProt Q969S8).
T2 sequence: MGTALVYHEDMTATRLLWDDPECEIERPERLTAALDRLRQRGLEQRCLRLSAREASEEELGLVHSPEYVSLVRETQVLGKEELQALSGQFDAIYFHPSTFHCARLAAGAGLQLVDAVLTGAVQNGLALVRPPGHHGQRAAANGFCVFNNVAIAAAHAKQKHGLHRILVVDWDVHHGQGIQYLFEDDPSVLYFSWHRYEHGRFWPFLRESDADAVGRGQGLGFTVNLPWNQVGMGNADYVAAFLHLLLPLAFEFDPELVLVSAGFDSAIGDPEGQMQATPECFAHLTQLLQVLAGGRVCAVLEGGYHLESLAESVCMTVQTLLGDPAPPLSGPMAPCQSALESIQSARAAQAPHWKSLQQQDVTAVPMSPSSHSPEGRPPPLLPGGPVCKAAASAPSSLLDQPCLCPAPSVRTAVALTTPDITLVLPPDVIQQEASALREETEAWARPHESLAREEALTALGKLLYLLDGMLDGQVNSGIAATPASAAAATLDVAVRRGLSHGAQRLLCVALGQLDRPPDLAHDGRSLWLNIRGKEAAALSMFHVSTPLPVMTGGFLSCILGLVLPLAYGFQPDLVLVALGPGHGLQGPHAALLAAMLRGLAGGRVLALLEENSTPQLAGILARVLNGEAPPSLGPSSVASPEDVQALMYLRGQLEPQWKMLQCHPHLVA

Assay [6] deals with T3, Immediate-early response 2 (human) (UniProt Q9BTL4).
T3 sequence: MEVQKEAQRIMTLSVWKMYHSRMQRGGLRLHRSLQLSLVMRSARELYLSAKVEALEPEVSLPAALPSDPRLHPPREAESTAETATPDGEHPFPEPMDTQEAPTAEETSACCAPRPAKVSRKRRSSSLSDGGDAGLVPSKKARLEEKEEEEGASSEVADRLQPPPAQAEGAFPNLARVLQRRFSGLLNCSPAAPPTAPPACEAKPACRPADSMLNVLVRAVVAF

The target in assay [7] is Kruppel-like factor 4 (gut) (KLF4) (human) (UniProt O43474).
Assay [8] deals with Nuclear receptor co-repressor 2 (NCOR2) (human) (UniProt Q9Y618).
Assay [9] concerns the target T4, Nuclear receptor coactivator 5 (NCOA5) (human) (UniProt Q9HCD5).
T4 sequence: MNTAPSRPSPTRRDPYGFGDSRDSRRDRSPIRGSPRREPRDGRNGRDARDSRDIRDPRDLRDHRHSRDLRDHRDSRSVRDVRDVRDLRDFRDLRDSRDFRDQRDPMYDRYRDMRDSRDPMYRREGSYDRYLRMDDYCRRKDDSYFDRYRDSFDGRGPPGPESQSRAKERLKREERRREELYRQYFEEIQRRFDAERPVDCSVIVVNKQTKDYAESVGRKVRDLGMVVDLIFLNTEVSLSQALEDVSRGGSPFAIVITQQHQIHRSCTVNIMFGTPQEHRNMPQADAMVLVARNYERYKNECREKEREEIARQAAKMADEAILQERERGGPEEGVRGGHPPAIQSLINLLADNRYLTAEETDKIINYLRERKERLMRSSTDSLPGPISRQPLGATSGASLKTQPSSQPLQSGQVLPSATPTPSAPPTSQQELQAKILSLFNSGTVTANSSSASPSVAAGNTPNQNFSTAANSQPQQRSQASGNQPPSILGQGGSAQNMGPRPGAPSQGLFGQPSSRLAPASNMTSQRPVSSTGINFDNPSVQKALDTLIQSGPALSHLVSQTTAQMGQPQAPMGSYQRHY

Assay [10] deals with RD RNA binding protein (RDBP) (human) (UniProt P18615).
Assay [11] addresses T5, Splicing factor, arginine/serine-rich 2 (human) (UniProt Q01130).
T5 sequence: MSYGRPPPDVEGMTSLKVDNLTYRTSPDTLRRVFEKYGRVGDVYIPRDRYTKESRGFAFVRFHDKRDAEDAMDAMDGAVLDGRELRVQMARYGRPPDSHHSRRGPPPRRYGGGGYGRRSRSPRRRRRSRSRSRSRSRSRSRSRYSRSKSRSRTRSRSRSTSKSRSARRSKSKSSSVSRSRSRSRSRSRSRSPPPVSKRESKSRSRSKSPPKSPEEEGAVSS

These are yes or no findings as the source states them, for the method shown. Some entries that bind do so weakly or less than the wild type. For some assays here: Sequences can lack the tags named with a protein.

With “Human cytomegalovirus immediate-early protein 1 (from UniProt P13202 1-491)”, the binding entry in assay [1] is listed as “binds”; in [2], “binds”; in assay [3] it was “binds”; in [4] it was “no binding”; in [5] it was “binds”; in assay [6] it was “binds”. The binding result in [7], in assay [8], in assay [9], in assay [10] and in [11] was “binds” each time.

Values taken from paper PMC3917433.
